This is an account of results in PubChem BioAssay AID2685 (National Center for Advancing Translational Sciences (NCATS), 2010).

This test in a line: qHTS Assay for Lipid Storage Modulators in Drosophila S3 Cells.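 On cell number change: cells counted by Cell Tracker Red CMTPX staining in the red channel.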 The note with it: BODIPY lipid droplet fluorescence, 18-24 h; for cell number change: measured here: cell count max response, cells fed with added oleic acid. In outline: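 Laser-scanning cytometry quantifies lipid droplet accumulation (500–530 nm total intensity; droplet/cell object ratio) in oleic acid-fed (400 uM added) Drosophila S3 cells treated with a concentration series. 20 uM Triacsin C defined 100% inhibition.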

The mark [1] stands for this setting: measured here: cell number channel AC50, cells fed with added oleic acid.
Where [2] appears, read: measured here: lipid fluorescence (Fed channel) AC50, cells fed with added oleic acid.

The other results are listed elsewhere or left out. The main result of the screen is listed elsewhere. These columns were measured beside it and carry no call. Most of these compounds were active or inconclusive in the main read-out, so they are no random draw. Words in brackets tell the shape of the fitted curve; partial curves, single points and poor fits give uncertain potencies.

`CCc1ccccc1Nc1ccc(C(=O)O)cc1N`: the cell number change was determined as 19%.
In the case of `O=C(COC(=O)Cn1[nH]c(=O)c2ccccc2c1=O)NNC(=O)c1ccccc1`, the cell number change amounted to 6.12%. Further, the AC50 under setting [1] is 1.03 µM [falling, full curve]. In addition, under setting [2], the AC50 is 1.03 µM [falling, full curve].
With `CCCc1c(C(=O)N/N=C/c2sccc2C)nnn1-c1nonc1N`, the cell number change was found to be 9.16%. Under setting [2], the AC50 is 29.1 µM [falling, partial curve].
As to `O=C(CCc1nc2ccccc2[nH]1)N1CCN(C(=O)c2ccco2)CC1`, the cell number change was 12.4%. For the same compound, the AC50 under setting [2] was 29.1 µM [falling, single point].
With `COc1ccc(NS(=O)(=O)c2cccc(C(=O)NNC(=O)c3cccc(NC(C)=O)c3)c2)cc1`, the cell number change is -28.5%. The AC50 under setting [1] is 3.26 µM [falling, full curve, poor fit].
With `O=C(NN1C(=O)C2C(C1=O)C1C=CC2C12CC2)c1ccncc1` (stereo not drawn), the cell number change was -30.2%. For the same compound, the AC50 under setting [1] is 29.1 µM [falling, single point]. Further, under setting [2], the AC50 was 16.4 µM [falling, partial curve, poor fit].
Take `CCCn1c(C(O)c2ccc(C)cc2)nc2ccccc21` (stereo not drawn): the cell number change was 21.8%. Further, the AC50 under setting [1] was 0.326 µM [rising, full curve, poor fit]. For the same compound, the AC50 under setting [2] is 29.1 µM [rising, single point].
As to `O=C(CCCN1C(=O)c2ccccc2C1=O)NCc1cccnc1`, the cell number change was determined as 12%. Further, the AC50 under setting [2] is 10.3 µM [rising, partial curve, poor fit].
`Cc1[nH]c2ccccc2c1-c1csc(NC(=O)CN2CCOCC2)n1`: the cell number change is 8.23%.
On to `Cc1ccc(S(=O)(=O)Nc2ccc(Cl)cc2)cc1NC(=O)Cn1cnc2c1c(=O)n(C)c(=O)n2C`, for which the cell number change was -14.9%. Moreover, the AC50 under setting [1] was 0.0092 µM [falling, full curve, poor fit]. Further, the AC50 under setting [2] was 0.0461 µM [falling, full curve, poor fit].
Turning to `CCCCc1nc2ccccc2c(C(=O)O)c1C`, the AC50 under setting [2] is 4.11 µM [rising, partial curve].
Regarding `O=C(Nc1cc(S(=O)(=O)Nc2ccccc2Cl)ccc1O)c1cc2c(s1)CCCC2`, the cell number change amounted to 23.6%. Moreover, the AC50 under setting [2] is 6.51 µM [rising, single point].
In the case of `Cc1ccc(N=Nc2c(C)[nH][nH]c2=O)c(C)c1`, the cell number change came out at 125%. Also, the AC50 under setting [1] was 5.17 µM [rising, full curve]. Moreover, under setting [2], the AC50 was 0.326 µM [rising, partial curve, poor fit].
Consider `O=C(COC(=O)C12CC3CC(CC(C3)C1)C2)NCCc1ccccc1`, for which the cell number change is -18.4%.
As for `CCCCNS(=O)(=O)c1ccc2nc(-c3cccnc3)cc(C(=O)NCCOC)c2c1`, the cell number change was -2.05%.
Turning to `COCC1CCCCN1C(=O)c1cccc(OC2CCN(S(C)(=O)=O)CC2)c1` (stereo not drawn), the cell number change was -39.9%. In addition, the concentration at half-maximal activity (AC50) under setting [1] was 14.6 µM [falling, partial curve].
On to `Cc1cccc(CSc2ncnc3nc[nH]c23)c1`, for which the AC50 under setting [2] is 1.16 µM [falling, full curve].
Regarding `Cc1nonc1NC(=O)CSc1nc2cc(Cl)ccc2c2c1CCCC2`, the cell number change amounted to 2.91%.
With `COc1ccc(-n2cc(C#N)c(=O)[nH]c2=O)cc1`, the cell number change is -7.85%.
For the compound `COc1ccc2[nH]cc(CCNC(=O)CCC3CCCCC3)c2c1`, the AC50 under setting [2] was 13 µM [falling, partial curve, poor fit].
Take `CNC(=O)c1[nH]cnc1C(=O)Nc1cccc(Cl)c1`: the cell number change is -14.2%.
Take `O=C(NCCCO)Nc1ccc2nc(-c3ccco3)c(-c3ccco3)nc2c1`: the cell number change was determined as 18.2%. The AC50 under setting [2] was 0.00461 µM [falling, full curve, poor fit].
Take `CCOc1ccc(S(=O)(=O)NCCC(=O)NCC(c2ccco2)N2CCCCC2)cc1` (stereo not drawn): the cell number change is -4.15%. Further, the AC50 under setting [2] is 0.058 µM [falling, full curve, poor fit].
Regarding `c1ccc(Cc2nnc3sc(-c4cccnc4)nn23)cc1`, the AC50 reads like this: under setting [1], 0.206 µM [rising, partial curve, poor fit]; under setting [2], 0.731 µM [rising, partial curve, poor fit].
On to `COc1cccc(CNC(=O)CCCSc2ccccc2)c1`, for which the cell number change was -7.89%. In addition, under setting [2], the AC50 was 5.62 µM [falling, single point].
For the compound `Cc1ccc(C)c(NS(=O)(=O)c2ccc(-c3coc(C)n3)cc2)c1`, the cell number change was -20.8%.
With `COc1ccc(CNC(=O)CN2C(=O)COc3ccc(S(=O)(=O)N4CCOCC4)cc32)cc1`, the cell number change amounted to 15.3%.
`O=C(NC1CCCC1)c1noc2c1CCCCC2`: the cell number change came to 20.4%. The AC50 under setting [2] is 0.0731 µM [falling, full curve, poor fit].
Consider `CN1CCN(S(=O)(=O)c2ccc(N3CCN(c4ccccc4O)CC3)c([N+](=O)[O-])c2)CC1`, for which the AC50 under setting [2] is 6.51 µM [falling, single point].
In the case of `COc1ccc(N/C=C/C(=O)c2cc(OC)c(OC)c(OC)c2)cc1`, the cell number change stood at 6.57%.
For `COc1ccc(NC(=O)CN(C)C(=O)c2cc(-c3ccc(Cl)cc3)nc3ccccc23)cc1`, the cell number change stood at 40.2%. Moreover, the AC50 under setting [1] is 16.4 µM [rising, partial curve, poor fit].
As for `OC(CNCc1ccc(-c2ccccc2)cc1)c1ccccc1` (stereo not drawn), the cell number change came out at 2.94%.
For the compound `CN(C)c1cccc(C(=O)NC2CCCc3ccccc32)c1` (stereo not drawn), the cell number change is 21.7%. Under setting [1], the AC50 was 0.291 µM [rising, full curve, poor fit].
As to `NC(=O)c1ccsc1NC(=O)c1cc(=O)c2ccccc2o1`, the cell number change was -6.24%. In addition, the AC50 under setting [1] was 4.11 µM [falling, single point]. For the same compound, under setting [2], the AC50 is 4.11 µM [falling, single point].
Take `CCOCCCNC(=O)c1ccc(CS(=O)(=O)Cc2ccccc2F)o1`: the AC50 under setting [2] was 29.1 µM [rising, partial curve].
Take `Cc1ccc(C)c(-c2nc3ccc(N)cc3[nH]2)c1`: the half-maximal activity concentration (AC50) is 0.461 µM [rising, full curve] under setting [1] and 0.366 µM [rising, full curve] under setting [2].
`CCOc1ccc(N(C)S(=O)(=O)c2cc(-c3cc(C)no3)ccc2C)cc1`: the cell number change was -37.9%. Moreover, the AC50 under setting [1] was 6.51 µM [falling, partial curve, poor fit]. For the same compound, under setting [2], the AC50 is 23.1 µM [falling, partial curve].
Take `CCn1nc(C(=O)OCC(=O)N2c3ccccc3CC2C)c2ccccc2c1=O` (stereo not drawn): the cell number change came out at 30%. The AC50 under setting [1] is 25.9 µM [rising, single point].
As to `CCc1c(C)nc(N2CCN(Cc3ccccc3)CC2)[nH]c1=O`, the cell number change is -15.4%. The AC50 under setting [2] was 0.116 µM [falling, full curve, poor fit].
Regarding `CCOC(=O)c1oc2c(c1C)/C(=N/O)CCC2`, the cell number change came out at 13.8%. In addition, the AC50 under setting [2] was 0.651 µM [falling, single point].
For the compound `Cc1ccc(NC(=O)Cc2nc(-c3c[nH]c(C(=O)N4CCCC4)c3)cs2)c(C)c1`, the cell number change stood at 34.4%. For the same compound, under setting [1], the AC50 was 0.82 µM [rising, full curve, poor fit]. Moreover, the AC50 under setting [2] is 0.00461 µM [rising, full curve, poor fit].
Turning to `C=CCn1c(N)c(C(=O)Nc2ccc(C)c(C)c2)c2nc3ccccc3nc21`, the cell number change was -34.9%. In addition, the AC50 under setting [1] is 20.6 µM [falling, single point]. For the same compound, the half-maximal activity concentration (AC50) under setting [2] is 29.1 µM [falling, single point].
Consider `CCCNC(=O)CSc1nc2ccccc2c(=O)n1CCC`, for which the cell number change stood at 71.2%. In addition, the AC50 under setting [1] is 9.2 µM [rising, partial curve].
Regarding `COc1ccc2c(c1OC)C(=O)OC2Nc1ccccn1` (stereo not drawn), the cell number change was 4.46%.
As for `O=C(NCc1cccnc1)c1cccnc1-c1nc2ccccc2s1`, the AC50 under setting [1] is 0.58 µM [rising, single point].
In the case of `CCc1ccc(-c2nc(CN3CCCC(C(=O)O)C3)c(C)o2)cc1` (stereo not drawn), the cell number change is 32.4%. The AC50 under setting [1] is 32.6 µM [rising, single point].
Consider `CCN(CC(=O)Nc1ccccc1OC)C(=O)CN1C(=O)NC(C)(c2ccccc2)C1=O` (stereo not drawn), for which the cell number change was -0.56%. The AC50 under setting [2] is 0.0058 µM [rising, full curve, poor fit].
Consider `CCc1ccc(NC(=O)c2cccc(C(=O)Nc3ccc(CC)cc3)n2)cc1`, for which the cell number change is 7.43%. In addition, the AC50 under setting [1] was 6.51 µM [rising, single point]. In addition, the AC50 under setting [2] was 29.1 µM [rising, single point].
In the case of `CCOC(=O)C1CCN(C(=O)COC(=O)c2cccc(F)c2)CC1`, the cell number change was found to be 86.7%.
For `COc1cc2ccccc2cc1C(=O)Nc1cccnc1`, the cell number change is -27%. Further, the AC50 under setting [2] was 0.651 µM [rising, full curve, poor fit].
On to `CCN(CC)c1ccc(NC(=O)C2CCCC2)cc1`, for which the cell number change is -3.81%. The AC50 under setting [2] is 29.1 µM [falling, single point].
Take `O=C(N/C(=C\c1ccco1)C(=O)N1CCOCC1)c1ccco1`: the cell number change worked out at 8%.
Take `CCCc1cc(=O)oc2cc(C)c(CN3CCCC3)c(O)c12`: the cell number change is -11.9%. For the same compound, the AC50 under setting [2] was 32.6 µM [falling, single point].
For the compound `Cn1ccnc1SCC(=O)c1ccc(OC(F)F)cc1`, the cell number change is -12.5%.
On to `O=C(N/N=C/c1ccco1)c1cccc(S(=O)(=O)Nc2ccccc2Cl)c1`, for which the AC50 under setting [2] is 29.1 µM [rising, single point].
As for `O=C(N1CCOCC1)N1CCN(S(=O)(=O)N2CCOCC2)CC1`, the cell number change is -8.65%.
Regarding `O=C(NC1CCN(Cc2ccccc2)CC1)C1CCN(S(=O)(=O)c2ccc(Cl)cc2)CC1`, the cell number change is -23.1%.
Regarding `O=CNCc1nc2ccccc2n1CCCc1ccccc1`, the cell number change was -3.15%. For the same compound, the half-maximal activity concentration (AC50) under setting [2] is 6.51 µM [rising, single point].
With `Cc1ccc2nc(N3CCN(C)CC3)c(C=O)c(=O)n2c1`, the cell number change was -10.6%. Also, the AC50 under setting [2] was 29.1 µM [rising, partial curve, poor fit].
In the case of `CCOC(=O)N1CCN(C(=O)COc2cccc3c2CCN(Cc2ccccc2F)C3=O)CC1`, the cell number change is -1.49%. Moreover, under setting [2], the AC50 is 29.1 µM [rising, partial curve, poor fit].
On to `O=C(CCCN1C(=O)/C(=C\c2cccs2)SC1=S)Nc1ccccn1`, for which the cell number change was -0.877%.
`CCOC(=O)Cn1c2ccccc2n2nc(CCC(=O)O)c(=O)nc12`: the cell number change stood at 97.2%.
`Cc1ccc(C(=O)CC(=O)c2cccc(F)c2)c(O)c1`: the cell number change was -63.8%. Further, the AC50 under setting [1] is 32.6 µM [falling, single point]. In addition, the AC50 under setting [2] was 6.51 µM [rising, single point].
For the compound `CCc1nc2ccc(C(=O)NCCCN3CCN(c4ccc(F)cc4)CC3)cc2nc1CC`, the cell number change worked out at 8.03%. The AC50 under setting [2] is 18.4 µM [falling, single point].

One may read the AC50 as the concentration giving half of the maximal activity seen. Low readings indicate greater potency, high ones weaker potency.
